Drawing on article PMC12145441, this text covers binding for two substances.

By UniProt entry, the sequences of proteins in these tests, tags left out.
UniProt O43791: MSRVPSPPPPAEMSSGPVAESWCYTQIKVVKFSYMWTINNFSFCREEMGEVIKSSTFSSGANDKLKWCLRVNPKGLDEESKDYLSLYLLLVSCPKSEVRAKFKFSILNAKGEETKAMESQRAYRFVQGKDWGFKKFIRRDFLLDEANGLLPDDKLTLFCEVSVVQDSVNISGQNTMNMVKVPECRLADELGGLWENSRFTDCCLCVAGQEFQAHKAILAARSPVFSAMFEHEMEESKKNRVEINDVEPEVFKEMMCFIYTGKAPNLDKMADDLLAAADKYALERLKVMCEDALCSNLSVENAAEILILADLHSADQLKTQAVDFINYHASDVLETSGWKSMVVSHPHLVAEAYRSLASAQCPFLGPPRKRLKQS

Results are given in words; binding and its absence hold for the method and conditions named. For part of these data: Binding seen in cells or lysates may run through a third protein. Some entries that bind do so weakly or less than the wild type. For part of these data: Where a sequence is shown, tags or fusion partners need not be part of it.

In test [1] the target is T1, LMNB2 (Lamin B2), endogenous (UniProt Q03252).
T1 sequence: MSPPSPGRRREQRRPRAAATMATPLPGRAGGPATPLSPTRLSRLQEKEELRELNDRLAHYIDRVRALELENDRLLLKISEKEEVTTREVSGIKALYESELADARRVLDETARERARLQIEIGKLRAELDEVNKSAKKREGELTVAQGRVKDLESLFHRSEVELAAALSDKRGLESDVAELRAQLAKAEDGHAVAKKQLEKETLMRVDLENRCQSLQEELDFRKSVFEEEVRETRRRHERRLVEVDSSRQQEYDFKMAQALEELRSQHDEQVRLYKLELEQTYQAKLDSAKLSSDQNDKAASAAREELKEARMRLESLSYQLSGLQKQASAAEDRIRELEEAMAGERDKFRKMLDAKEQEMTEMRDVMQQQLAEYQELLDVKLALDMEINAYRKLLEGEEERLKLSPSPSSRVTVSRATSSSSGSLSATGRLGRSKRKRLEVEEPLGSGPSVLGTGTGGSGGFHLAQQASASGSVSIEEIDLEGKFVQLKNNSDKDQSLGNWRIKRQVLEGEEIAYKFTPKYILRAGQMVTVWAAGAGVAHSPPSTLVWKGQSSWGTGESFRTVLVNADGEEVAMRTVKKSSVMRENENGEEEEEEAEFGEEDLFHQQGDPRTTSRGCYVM
Description: co-IP; endogenous proteins; protein G Sepharose beads coupled with antibody at 4 °C overnight; washed with BC100 buffer with 0.2% Triton X-100; western blot; cell line not stated. (A western blot detects proteins with antibodies after separation by electrophoresis.)

Test [2] concerns the target T2, LMNB2, recombinant protein of the GST pull-down (UniProt Q03252).
T2 sequence: T1 sequence
Briefly: pull-down; GST fusion protein immobilised on glutathione-Sepharose beads, incubated with recombinant protein for two hours in pull-down buffer (20 mM Tris-HCl pH 7.5, 150 mM NaCl, 0.1% NP-40, 1 mM DTT, 10% glycerol, 1 mM EDTA, 2.5 mM MgCl2); western blot; both purified.

Test [3] concerns the target T3, LMNB2-ΔSBC, recombinant protein of the GST pull-down (UniProt Q03252).
T3 sequence: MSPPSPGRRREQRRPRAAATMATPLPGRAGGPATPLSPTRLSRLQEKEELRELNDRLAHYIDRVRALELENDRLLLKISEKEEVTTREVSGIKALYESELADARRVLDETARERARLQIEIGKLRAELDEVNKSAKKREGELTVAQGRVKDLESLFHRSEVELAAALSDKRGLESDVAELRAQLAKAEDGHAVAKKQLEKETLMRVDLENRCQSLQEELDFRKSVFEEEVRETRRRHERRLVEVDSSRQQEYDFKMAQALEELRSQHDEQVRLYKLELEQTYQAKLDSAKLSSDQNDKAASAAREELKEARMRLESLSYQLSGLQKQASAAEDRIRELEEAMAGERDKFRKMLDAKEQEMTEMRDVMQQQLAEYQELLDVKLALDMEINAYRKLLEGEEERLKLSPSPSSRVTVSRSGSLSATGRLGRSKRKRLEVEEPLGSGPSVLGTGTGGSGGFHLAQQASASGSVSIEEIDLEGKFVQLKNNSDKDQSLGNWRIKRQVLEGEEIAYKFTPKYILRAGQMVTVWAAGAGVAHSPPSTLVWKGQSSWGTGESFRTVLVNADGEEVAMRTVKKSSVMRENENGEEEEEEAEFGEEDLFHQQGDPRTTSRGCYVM
The description is as above.

On to “SPOP (speckle-type POZ protein), endogenous (from UniProt O43791 1-374)”, for which the binding entry in test [1] was “binds”. Take “SPOP, recombinant protein of the GST pull-down (from UniProt O43791 1-374)”: the binding entry in test [2] is given as “binds”; in test [3] it was “no binding”.
